# Experimental data: publication PMC6297230, “Structural basis of meiotic telomere attachment to the nuclear envelope by MAJIN-TERB2-TERB1” (Nature Communications, 2018)
# Construct, isoform or probe ends are uncertain for at least one entry. For some of these results: Negatives hold for the conditions tested. For some of these results: A weaker result is weaker than the reference pair of the same experiment. For some of these results: At least one verdict was read from the data and is not stated in words by the source.
# How the values were obtained:
# [1] = test system: MAJIN Core+BP1 + TERB2 full length + TERB1 TRFB; assay: EMSA; settings: plus TRF1 TRFH, inhibition partly compensated by BP1; EMSA: 20 mM Tris pH 8.0, 250 mM KCl, 1 h at 4 °C, 3% glycerol, 0.5% agarose in 0.5x TBE; 25 nM FAM-DNA for Kd (protein as oligomer), 0.3 uM DNA for display; recombinant protein
# [2] = test system: MAJIN Core + TERB2 full length + TERB1 T2B; assay: EMSA; settings: plus TRF1 TRFH, not inhibited (inhibition needs TRF1-binding region of TERB1); EMSA: 20 mM Tris pH 8.0, 250 mM KCl, 1 h at 4 °C, 3% glycerol, 0.5% agarose in 0.5x TBE; 25 nM FAM-DNA for Kd (protein as oligomer), 0.3 uM DNA for display; recombinant protein
# [3] = test system: MAJIN Core + TERB2 full length + TERB1 TRFB; assay: EMSA; settings: plus TRF1 TRFH, binding inhibited; EMSA: 20 mM Tris pH 8.0, 250 mM KCl, 1 h at 4 °C, 3% glycerol, 0.5% agarose in 0.5x TBE; 25 nM FAM-DNA for Kd (protein as oligomer), 0.3 uM DNA for display; recombinant protein
# [4] = test system: TRF1 full length + MAJIN Core + TERB2 full length + TERB1 TRFB; assay: EMSA supershift; settings: complex recruited to DNA by full-length TRF1; EMSA: 20 mM Tris pH 8.0, 250 mM KCl, 1 h at 4 °C, 3% glycerol, 0.5% agarose in 0.5x TBE; 25 nM FAM-DNA for Kd (protein as oligomer), 0.3 uM DNA for display; recombinant protein
# MAJIN Core + TERB2 C-Tr = assay: EMSA; settings: TERB2 214-220 stated essential for DNA-binding; EMSA: 20 mM Tris pH 8.0, 250 mM KCl, 1 h at 4 °C, 3% glycerol, 0.5% agarose in 0.5x TBE; 25 nM FAM-DNA for Kd (protein as oligomer), 0.3 uM DNA for display; recombinant protein; protein details: tags removed (TEV),tags removed (TEV); label: 5' …
# [5] = test system: MAJIN Core F73E Y75E + TERB2 C; assay: EMSA; settings: diminished vs WT; EMSA: 20 mM Tris pH 8.0, 250 mM KCl, 1 h at 4 °C, 3% glycerol, 0.5% agarose in 0.5x TBE; 25 nM FAM-DNA for Kd (protein as oligomer), 0.3 uM DNA for display; recombinant protein; protein details: tags removed (TEV),tags removed (TEV); label: 5' …
# [6] = test system: MAJIN Core basic surface mutant + TERB2 C; assay: EMSA; settings: complete inhibition of DNA-binding; EMSA: 20 mM Tris pH 8.0, 250 mM KCl, 1 h at 4 °C, 3% glycerol, 0.5% agarose in 0.5x TBE; 25 nM FAM-DNA for Kd (protein as oligomer), 0.3 uM DNA for display; recombinant protein; protein details: tags removed (TEV),tags removed (TEV); label: 5' …
sequence,measurement,setting,value
GCGAACACCCTGCATCGTCCGACCGGCTCTACAGGTTCCGGCCTGTATTTCTCTTCC (double strand) [Random dsDNA (57 bp)],binding result,[1],binds
same,binding result,[2],binds
same,binding result,[3],binds more weakly
same,binding result,[4],binds
TTCCAGGGTTCCATGGAGATAAAGGTCAATAAATTAGAGTTAGAACTAGAAAGTGCCAAACAGAAATTTGGAGAAATCACAGACACCTATCAGAAAGAAATTGAGGACAAAAAGATATCAGAATAATAACCATGGATATCGAATT (double strand) [FAM random dsDNA (145 bp)],binding result,MAJIN Core + TERB2 C-Tr,no binding
same,binding result,[5],binds more weakly
same,binding result,[6],no binding
